Reference: PMC11006773
These are yes or no findings as the source states them, for the method shown. Binding seen in cells or lysates may run through a third protein. Some results given as binding are weak or reduced against the parent protein; the word gives no strength.

By UniProt entry, the sequences of proteins in these tests, tags left out.
UniProt Q91YI4: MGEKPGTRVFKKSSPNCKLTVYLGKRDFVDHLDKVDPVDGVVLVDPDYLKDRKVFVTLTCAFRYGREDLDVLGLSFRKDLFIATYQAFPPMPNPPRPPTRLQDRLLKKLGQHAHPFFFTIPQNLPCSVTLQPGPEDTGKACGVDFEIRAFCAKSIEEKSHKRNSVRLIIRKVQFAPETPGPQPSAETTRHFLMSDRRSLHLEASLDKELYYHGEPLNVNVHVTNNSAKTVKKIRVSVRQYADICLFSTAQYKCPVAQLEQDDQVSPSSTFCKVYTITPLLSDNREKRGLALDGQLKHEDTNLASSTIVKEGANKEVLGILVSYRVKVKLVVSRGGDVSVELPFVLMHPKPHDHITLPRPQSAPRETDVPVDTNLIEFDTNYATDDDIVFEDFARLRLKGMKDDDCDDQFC
UniProt Q08857: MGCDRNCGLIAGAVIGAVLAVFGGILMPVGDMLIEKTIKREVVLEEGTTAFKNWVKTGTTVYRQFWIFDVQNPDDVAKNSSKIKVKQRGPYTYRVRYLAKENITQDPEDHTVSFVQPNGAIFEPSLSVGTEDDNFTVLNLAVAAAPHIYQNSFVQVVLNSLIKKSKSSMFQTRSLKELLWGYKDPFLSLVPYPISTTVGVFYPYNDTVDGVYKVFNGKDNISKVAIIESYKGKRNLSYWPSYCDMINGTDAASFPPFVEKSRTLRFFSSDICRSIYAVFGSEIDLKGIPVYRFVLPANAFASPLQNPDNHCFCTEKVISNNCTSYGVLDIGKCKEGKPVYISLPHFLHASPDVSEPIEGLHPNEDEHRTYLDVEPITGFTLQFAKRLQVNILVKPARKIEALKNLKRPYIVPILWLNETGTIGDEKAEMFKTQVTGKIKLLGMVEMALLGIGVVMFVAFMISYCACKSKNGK

Assays:
[1] = target: T1, GPR120 (mouse (endogenous in RAW 264.7)) (UniProt Q7TMA4); test: co-IP; RAW 264.7 cells treated with NKS3 (50 µM for 2 h) and then LPS (10 ng/ml for 24 h); lysates immunoprecipitated with anti-GPR120 antibodies, CD36 and GPR120 detected by Western blotting
T1 sequence: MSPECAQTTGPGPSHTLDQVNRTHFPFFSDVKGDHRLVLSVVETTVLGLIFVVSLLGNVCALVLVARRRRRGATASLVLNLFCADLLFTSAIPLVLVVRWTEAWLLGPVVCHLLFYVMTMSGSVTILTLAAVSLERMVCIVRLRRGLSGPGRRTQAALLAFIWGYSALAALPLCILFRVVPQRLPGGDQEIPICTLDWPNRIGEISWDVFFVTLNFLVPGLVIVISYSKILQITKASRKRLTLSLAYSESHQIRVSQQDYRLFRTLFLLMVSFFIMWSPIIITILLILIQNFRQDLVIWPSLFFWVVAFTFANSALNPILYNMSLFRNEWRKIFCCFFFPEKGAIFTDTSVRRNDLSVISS

[2] = target: T1, GPR120 (mouse (endogenous in RAW 264.7)); test: proximity ligation; RAW 264.7 cells with NKS3, fixed in 4% PFA, permeabilised with 0.2% Triton; anti-CD36 and anti-GPR120 primary antibodies, Duolink In Situ Red kit; non-treated cells and cells with CD36 or GPR120 knocked down by siRNA
[3] = target: β-arrestin2 (mouse (endogenous in RAW 264.7)) (UniProt Q91YI4); test: co-IP; RAW 264.7 cells treated with NKS3 and LPS; lysates immunoprecipitated for β-arrestin, TAB1 detected by Western blotting

CD36 (from UniProt Q08857 1-472) (receptor)
binding [1]: binds
binding [2]: binds

B1: TAB1 (protein, UniProt Q8CF89 1-502)
chain: MAAQRRSLLQSEQQPSWTDDLPLCHLSGVGSASNRSYSADGKGTESHPPEDNWLKFRSENNCFLYGVFNGYDGNRVTNFVAQRLSAELLLGQLNTEHTEADVRRVLLQAFDVVERSFLESIDDALAEKASLQSQLPEGVPQHQLPPQYQKILERLKALEREISGGAMAVVAVLLNSKLYVANVGTNRALLCKSTVDGLQVTQLNMDHTTENEDELFRLSQLGLDAGKIKQMGVICGQESTRRIGDYKVKYGYTDIDLLSAAKSKPIIAEPEIHGAQPLDGVTGFLVLMSEGLYKALEAAHGPGQANQEIAAMIDTEFAKQTSLDAVAQAVVDRVKRIHSDTFASGGERAKFCPRHEDMTLLVRNFGYPLGEMSQPTPTPAPGGRVYPVSVPYSSAQSTSKTSVTLSLVMPSQGQMVNGSHSASTLDEATPTLTNQSPTLTLQSTNTHTQSSSSSSDGGLFRSRPAHSLPPGEDGRVEPYVDFAEFYRLWSVDHGEQSVMTAP
binding [3]: binds
